Most values lie at the floor of the assay. Slopes are relative: functional sequences can read slightly below zero.
What follows are substances tested on Saccharomyces cerevisiae PS128 hsf1 delta, HSF1(1-493) fusion (assay: growth estimate (transactivation domain function in HSF1 fusion, heat-shock survival) (a.u. (slope of normalised read count over time)); higher = stronger growth at 37°C, i.e. more transactivation activity). Conditions: library: random library.
Experimental: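 Random 60-nt DNA library encoding peptides of up to 20 aa, fused to the C-terminus of yeast HSF1 residues 1-493 (C-terminal TAD deleted) and expressed from the native HSF1 promoter on a CEN plasmid in hsf1-deleted S. cerevisiae PS128. Cells were selected at 37°C on -trp 5-FOA plates for 0, 2, 4, 6 and 8 days and amplicons were sequenced. Growth estimate is the slope of a robust linear fit of total-sum-normalised read counts (normalised to the first time point) over time, using at least 2 replicates. Sequences are classed functional (TAD activity) above a threshold of -0.13, set from stop-codon control sequences.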
SEILSSK was tested, and the growth estimate was under -0.25.
Substance ALQGSSGSMCGSQSKCVRGR has a growth estimate of under -0.25.
NEYIISWLQRSVDLG gave a growth estimate of under -0.25.
LAVRVSATGVVLHILPHGRR was tested, and the growth estimate was under -0.25.
In the case of NHL, the growth estimate is reported as under -0.25.
QRPTSNSITS showed a growth estimate of under -0.25.
In the case of KSVK, the growth estimate is reported as under -0.25.
For RGAACVACTRSFGGYIR, the growth estimate was under -0.25.
Work on LRRNRYTIKSKFTQPSE yielded a growth estimate of under -0.25.
YYVKGCRRDSLKCPLEDRND showed a growth estimate of under -0.25.
For ESGGLRWVVGLVNFQQPGRL, the growth estimate was under -0.25.
LARGGTACDDTVPKRHVSTG was tested, and the growth estimate was under -0.25.
EREFERTGMRPARNLILALQ showed a growth estimate of under -0.25.
GSGHKALQGVFQRRGGNGSR was tested, and the growth estimate was under -0.25.
For SHSAHAEMYLIQLLTK, the growth estimate was under -0.25.
For PESEILEPEAAYTNADQWPT, the growth estimate was under -0.25.
In the case of AHTPVSIYWQSKTVSSYCR, the growth estimate is reported as under -0.25.
For RIYDGTPRAFPAGTQLRLTL, the growth estimate was under -0.25.
In the case of NFGGLISSRK, the growth estimate is reported as under -0.25.
Substance NCARAGRDHMKR has a growth estimate of under -0.25.
For AHSWLRVGKLVSVRLRSPLV, the growth estimate was -0.214.
LRTIEKQHPENLSVRQVVLP was tested, and the growth estimate was under -0.25.
Substance EGPGF has a growth estimate of under -0.25.
LRAFGGHGARI gave a growth estimate of under -0.25.
With FRVRQDDT the growth estimate was under -0.25.
RPRPRCASVPLWLVAGSHMR gave a growth estimate of under -0.25.
WSARPSPEGWPRDLQ gave a growth estimate of under -0.25.
Work on CHGGVRVRGIFKSNGGANVM yielded a growth estimate of under -0.25.
With MNSKTRLLAKKLTNVPESPC the growth estimate was under -0.25.
Work on TVLSICRP yielded a growth estimate of under -0.25.
For IRTSIGGSSRPLVKSGGWRT, the growth estimate was under -0.25.
LMWTLARLHAVELALEARAR gave a growth estimate of under -0.25.
Work on LLSYCWPCVGRGWPWTRSYV yielded a growth estimate of under -0.25.
With DLQGYIQAFLALSCRLSFCL the growth estimate was under -0.25.
TPLKRLARCCVRSWIQLFSP showed a growth estimate of under -0.25.
Work on HLTSERTSWRQAL yielded a growth estimate of under -0.25.
For RQRCLLQKLCV, the growth estimate was -0.246.
Substance RSHGYCVIGLLVRVVSMCSD has a growth estimate of under -0.25.
FVGPAHELRSRGRLCA gave a growth estimate of under -0.25.
ALQCLARGAGVSMRFPSRAS showed a growth estimate of under -0.25.
For GTRVEPKVA, the growth estimate was under -0.25.
In the case of LPDGRI, the growth estimate is reported as under -0.25.
CRS was tested, and the growth estimate was under -0.25.
Substance RRNTAAGDRFDRGFAPHIVQ has a growth estimate of under -0.25.
Substance NLPQAITLYLVVSSSVPWTE has a growth estimate of under -0.25.
RQVQTSQECKAIACFM gave a growth estimate of under -0.25.
ARSLPSGSSRADRWTSEFRL gave a growth estimate of under -0.25.
PCRNAYR showed a growth estimate of under -0.25.
Substance RGFSGTLS has a growth estimate of under -0.25.
In the case of LPGVDWVVHV, the growth estimate is reported as under -0.25.
In the case of EGRKRGVWLE, the growth estimate is reported as -0.21.
Work on LIKSLVSTTRIAFSVDISVA yielded a growth estimate of under -0.25.
Work on RYITRSI yielded a growth estimate of under -0.25.
QFKTGRGLNQCTLAQSLCRI gave a growth estimate of under -0.25.
Substance LRLWFDPFFYS has a growth estimate of -0.102.
For PSLCGRALKIRRCGLAPVSS, the growth estimate was under -0.25.
LPERQW showed a growth estimate of under -0.25.
With DVTPDVGLIWALALYVLVCC the growth estimate was under -0.25.
QLMNVARPMTHIV was tested, and the growth estimate was under -0.25.
Substance KDEELPQAVVSFLFPDESSR has a growth estimate of -0.189.
For NASQRKSREFRSCAG, the growth estimate was under -0.25.
With SSAVQ the growth estimate was under -0.25.
In the case of SDEFDRAS, the growth estimate is reported as under -0.25.
With APQWET the growth estimate was under -0.25.
SRCYIRRLR was tested, and the growth estimate was under -0.25.
GTCIVGHEKSCSVP was tested, and the growth estimate was under -0.25.
GRLV was tested, and the growth estimate was -0.198.
Substance GKRRQLPISPRDFSGIARAR has a growth estimate of under -0.25.
With PSAGCEISY the growth estimate was under -0.25.
In the case of VRCFHCRVR, the growth estimate is reported as under -0.25.
WYSSTTERALDGLNFLLSR was tested, and the growth estimate was -0.173.
For KTAACKLSLERRVRLIHLSL, the growth estimate was under -0.25.
For CFGAGRTN, the growth estimate was under -0.25.
Work on GFG yielded a growth estimate of under -0.25.
In the case of NVKVVRC, the growth estimate is reported as under -0.25.
Work on SAELCRRCFYYPTRKKSHAA yielded a growth estimate of under -0.25.
DVVSYINVSGGLCLVFEC was tested, and the growth estimate was under -0.25.
GNCHRRLEAIILDDLHYVHG showed a growth estimate of under -0.25.
HLFARS showed a growth estimate of under -0.25.
For SHSPVSLLCRRRPK, the growth estimate was under -0.25.
For LACFSFHSGFREPQGVSVRH, the growth estimate was under -0.25.
Work on RTGFFPIFRHVSLGSLSIGL yielded a growth estimate of under -0.25.
Work on PGHF yielded a growth estimate of under -0.25.
For PCDEIRRVACRFQVTYSRHT, the growth estimate was under -0.25.
In the case of SRYTLYS, the growth estimate is reported as under -0.25.
With QAEGGYLWSLVWPSSE the growth estimate was under -0.25.
DTGT showed a growth estimate of under -0.25.
Substance MSGTTP has a growth estimate of under -0.25.
With ALY the growth estimate was under -0.25.
With RPAGSHHRQIGLVHGGYGSS the growth estimate was under -0.25.
In the case of DSDIFESKNGHGFKSIKPVP, the growth estimate is reported as under -0.25.
Work on PLLLPHVMVLIDGGKMSTLH yielded a growth estimate of under -0.25.
CKIDL gave a growth estimate of under -0.25.
With WYS the growth estimate was under -0.25.
With CRPYRFDIGIRMLSMLLSEG the growth estimate was under -0.25.
Substance GTVFMDVNIRVLHTARHSPP has a growth estimate of under -0.25.
Work on SVGADEPFGDAKGVSRQ yielded a growth estimate of under -0.25.
Work on GQLSRPYIAAQVPGKTWGPM yielded a growth estimate of under -0.25.
AKSYGPVWF was tested, and the growth estimate was under -0.25.
In the case of TRPNPMARESCPHAYRLTLK, the growth estimate is reported as under -0.25.
For TIESTGAHRSGGSRLLLLFT, the growth estimate was under -0.25.
LYTYGGPYTGSCGSLRERNG showed a growth estimate of under -0.25.
SLRT showed a growth estimate of under -0.25.
INGET showed a growth estimate of 0.058.
With LMPREV the growth estimate was under -0.25.
Work on EMGNPCCLSKPQKTGPHIRS yielded a growth estimate of under -0.25.
Work on ISLRF yielded a growth estimate of under -0.25.
In the case of GCRRLKCNQAKKR, the growth estimate is reported as under -0.25.
KAVHLSGQYQREERYAQILP was tested, and the growth estimate was under -0.25.
With FTLLLNSLR the growth estimate was under -0.25.
Substance GQQEPDLGRGAGTRWSGMHM has a growth estimate of under -0.25.
Work on VRQCQWLRLGNTVLGGPSAR yielded a growth estimate of under -0.25.
AVAITIGAAGRKRAPCCDRA showed a growth estimate of under -0.25.
For SLEVLLRYQSISESGWRTTV, the growth estimate was under -0.25.
In the case of AQELIRSYRTS, the growth estimate is reported as under -0.25.
In the case of IIALGSGDDIFVSIRPLRYA, the growth estimate is reported as under -0.25.
In the case of DLYLIKLGLDMWRDLG, the growth estimate is reported as under -0.25.
Substance PGIRPFQSGVMSLA has a growth estimate of under -0.25.
ARECHVCAQLKRSS was tested, and the growth estimate was under -0.25.
PGDSMKHLPDASKVCAESMV was tested, and the growth estimate was under -0.25.
Work on IGGGFRVNVRSLTRLLRPLH yielded a growth estimate of under -0.25.
In the case of ISPKVVARTGRY, the growth estimate is reported as under -0.25.
HIRQGGGLNHAAGKREVLNP showed a growth estimate of under -0.25.
In the case of QSARSTPVPARDECKQVFQN, the growth estimate is reported as under -0.25.
Work on HLEAGAVSLPAMAVSTRVEC yielded a growth estimate of under -0.25.
For EKHVRVHKLEIYRPSKVNRR, the growth estimate was under -0.25.
Substance LKRQ has a growth estimate of under -0.25.
Work on LAAKRGFPVIQCVSFQPHLR yielded a growth estimate of under -0.25.
For NKTNGVRCLHRFVVLQERTL, the growth estimate was under -0.25.
PGSARRLDQPISVMPCGFST showed a growth estimate of under -0.25.
EKGGSISGRN gave a growth estimate of under -0.25.
RLAVSPSPAGGNTFGPAPSP gave a growth estimate of under -0.25.
GLLTPSNTTGACGSLEVWE gave a growth estimate of under -0.25.
HLMRWRSNGVYFALWSRVGH was tested, and the growth estimate was under -0.25.
In the case of RTALDGFRRTRAPANIRSAK, the growth estimate is reported as under -0.25.
Substance DRG has a growth estimate of under -0.25.
FNPGPDPWRLSD gave a growth estimate of -0.245.
Substance AGWLTRSPDLSVALDWLGQL has a growth estimate of under -0.25.
In the case of GPQDATLGGTSEKWYLLRSP, the growth estimate is reported as under -0.25.
For EGRAHPSANSGHRSEHSIDL, the growth estimate was under -0.25.
LRLFVLRSGSR showed a growth estimate of under -0.25.
With GLTYDLSPAAPRLLQRIRTT the growth estimate was under -0.25.
Substance WYVRGTR has a growth estimate of under -0.25.
QRVRALELRMSILLLRTNLR was tested, and the growth estimate was under -0.25.
QRVGPRF gave a growth estimate of under -0.25.
Substance HHRGRMVPPW has a growth estimate of under -0.25.
AKLAYRTNVKGYLSGIIAAK gave a growth estimate of under -0.25.
ADVPSGLREKVGVAGLTSSW showed a growth estimate of under -0.25.
GQPVRPPRQGA was tested, and the growth estimate was under -0.25.
For GTTEEGLCSPYSTSVD, the growth estimate was under -0.25.
Substance RVVMTGFFSACGESQLQMPG has a growth estimate of under -0.25.

— the supplement of paper PMC5949888
